Here are results for one substance from patent publication US20180298401A1 (CORNELL UNIVERSITY, published 2018).

Chains of the proteins cited; added tags and fusions are not shown. Lines headed by an entry give the natural chain unless they say otherwise; changes in a name come on top. Residues count along the entry.
UniProt Q31NB2: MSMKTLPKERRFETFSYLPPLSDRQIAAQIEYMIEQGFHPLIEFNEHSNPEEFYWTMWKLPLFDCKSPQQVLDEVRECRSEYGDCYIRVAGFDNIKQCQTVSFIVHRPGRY
UniProt P69249, residues 58-180: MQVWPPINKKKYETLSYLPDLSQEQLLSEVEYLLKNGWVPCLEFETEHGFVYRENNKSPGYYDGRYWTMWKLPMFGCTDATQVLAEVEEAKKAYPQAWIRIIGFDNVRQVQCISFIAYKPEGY

No constants are given. Whether binding was seen depends on the method and setting. Some entries that bind do so weakly or less than the wild type.

For the test, the target named is Rubisco from the cyanobacterium Synechococcus elongatus PCC7942 (hexadecameric holoenzyme of eight LSU and eight SSU), expressed in tobacco chloroplasts (Synechococcus elongatus PCC7942) (UniProt Q31NB3+Q31NB2). The experiment in a line: TEM with immunogold labelling of SeLSM35 and SeLSYM35 leaf sections.

Regarding “Tobacco Rubisco small subunit (SSU) (from UniProt P69249 58-180) (enzyme)”, the binding entry is “binds”.
